Source: ChEMBL document CHEMBL4316593 (Eur J Med Chem, 2019)
This continues a long series; more values of the same kind are listed elsewhere.

How the values were obtained:
Type in all cases: cell-based
Details in all cases: U-87MG ATCC
[1] = Inhibition of RTK/PI3K/AKT/mTOR signaling in human U87 cells assessed as down regulation of NGDN gene expression at cytotoxic IC50 measured after 48 hrs relative to control
[2] = Inhibition of RTK/PI3K/AKT/mTOR signaling in human U87 cells assessed as up regulation of solute carrier family 38 member 1 gene expression at cytotoxic IC50 measured after 48 hrs relative to control
[3] = Inhibition of RTK/PI3K/AKT/mTOR signaling in human U87 cells assessed as down regulation of ENY2 gene expression at cytotoxic IC50 measured after 48 hrs relative to control
[4] = Inhibition of RTK/PI3K/AKT/mTOR signaling in human U87 cells assessed as up regulation of PDE9A gene expression at cytotoxic IC50 measured after 48 hrs relative to control
[5] = Inhibition of RTK/PI3K/AKT/mTOR signaling in human U87 cells assessed as up regulation of chromodomain helicase DNA binding protein 3 gene expression at cytotoxic IC50 measured after 48 hrs relative to control
[6] = Inhibition of RTK/PI3K/AKT/mTOR signaling in human U87 cells assessed as up regulation of latent transforming growth factor beta binding protein 4 gene expression at cytotoxic IC50 measured after 48 hrs relative to control
[7] = Inhibition of RTK/PI3K/AKT/mTOR signaling in human U87 cells assessed as up regulation of LGALS3BP gene expression at cytotoxic IC50 measured after 48 hrs relative to control
[8] = Inhibition of RTK/PI3K/AKT/mTOR signaling in human U87 cells assessed as up regulation of P4HA1 gene expression at cytotoxic IC50 measured after 48 hrs relative to control
[9] = Inhibition of RTK/PI3K/AKT/mTOR signaling in human U87 cells assessed as down regulation of MTF1 gene expression at cytotoxic IC50 measured after 48 hrs relative to control
[10] = Inhibition of RTK/PI3K/AKT/mTOR signaling in human U87 cells assessed as down regulation of ATMIN gene expression at cytotoxic IC50 measured after 48 hrs relative to control
[11] = Inhibition of RTK/PI3K/AKT/mTOR signaling in human U87 cells assessed as down regulation of IP6K1 gene expression at cytotoxic IC50 measured after 48 hrs relative to control
[12] = Inhibition of RTK/PI3K/AKT/mTOR signaling in human U87 cells assessed as up regulation of DNA methyltransferase 3 beta gene expression at cytotoxic IC50 measured after 48 hrs relative to control
[13] = Inhibition of RTK/PI3K/AKT/mTOR signaling in human U87 cells assessed as up regulation of membrane associated guanylate kinase, WW and PDZ domain containing 1 gene expression at cytotoxic IC50 measured after 48 hrs relative to control
[14] = Inhibition of RTK/PI3K/AKT/mTOR signaling in human U87 cells assessed as up regulation of laminin subunit alpha 5 gene expression at cytotoxic IC50 measured after 48 hrs relative to control
[15] = Inhibition of RTK/PI3K/AKT/mTOR signaling in human U87 cells assessed as down regulation of UBLCP1 gene expression at cytotoxic IC50 measured after 48 hrs relative to control
[16] = Inhibition of RTK/PI3K/AKT/mTOR signaling in human U87 cells assessed as down regulation of CXCL8 gene expression at cytotoxic IC50 measured after 48 hrs relative to control
[17] = Inhibition of RTK/PI3K/AKT/mTOR signaling in human U87 cells assessed as up regulation of serpin family E member 2 gene expression at cytotoxic IC50 measured after 48 hrs relative to control
[18] = Inhibition of RTK/PI3K/AKT/mTOR signaling in human U87 cells assessed as up regulation of ankyrin repeat domain 11 gene expression at cytotoxic IC50 measured after 48 hrs relative to control
[19] = Inhibition of RTK/PI3K/AKT/mTOR signaling in human U87 cells assessed as up regulation of ring finger protein 130 gene expression at cytotoxic IC50 measured after 48 hrs relative to control
[20] = Inhibition of RTK/PI3K/AKT/mTOR signaling in human U87 cells assessed as up regulation of HPCAL1 gene expression at cytotoxic IC50 measured after 48 hrs relative to control
[21] = Inhibition of RTK/PI3K/AKT/mTOR signaling in human U87 cells assessed as up regulation of NADH dehydrogenase, subunit 3 (complex I) gene expression at cytotoxic IC50 measured after 48 hrs relative to control
[22] = Inhibition of RTK/PI3K/AKT/mTOR signaling in human U87 cells assessed as down regulation of RAD1 gene expression at cytotoxic IC50 measured after 48 hrs relative to control
[23] = Inhibition of RTK/PI3K/AKT/mTOR signaling in human U87 cells assessed as down regulation of CWC15 gene expression at cytotoxic IC50 measured after 48 hrs relative to control
[24] = Inhibition of RTK/PI3K/AKT/mTOR signaling in human U87 cells assessed as down regulation of SYDE2 gene expression at cytotoxic IC50 measured after 48 hrs relative to control
[25] = Inhibition of RTK/PI3K/AKT/mTOR signaling in human U87 cells assessed as down regulation of RAB5A gene expression at cytotoxic IC50 measured after 48 hrs relative to control
[26] = Inhibition of RTK/PI3K/AKT/mTOR signaling in human U87 cells assessed as up regulation of mitochondrial ribosomal protein S18B gene expression at cytotoxic IC50 measured after 48 hrs relative to control
[27] = Inhibition of RTK/PI3K/AKT/mTOR signaling in human U87 cells assessed as up regulation of signal sequence receptor subunit 3 gene expression at cytotoxic IC50 measured after 48 hrs relative to control
[28] = Inhibition of RTK/PI3K/AKT/mTOR signaling in human U87 cells assessed as down regulation of SH3BP5L gene expression at cytotoxic IC50 measured after 48 hrs relative to control
[29] = Inhibition of RTK/PI3K/AKT/mTOR signaling in human U87 cells assessed as down regulation of GTF2A1 gene expression at cytotoxic IC50 measured after 48 hrs relative to control
[30] = Inhibition of RTK/PI3K/AKT/mTOR signaling in human U87 cells assessed as down regulation of MYL12A gene expression at cytotoxic IC50 measured after 48 hrs relative to control
[31] = Inhibition of RTK/PI3K/AKT/mTOR signaling in human U87 cells assessed as down regulation of MCM2 gene expression at cytotoxic IC50 measured after 48 hrs relative to control
[32] = Inhibition of RTK/PI3K/AKT/mTOR signaling in human U87 cells assessed as down regulation of HBEGF gene expression at cytotoxic IC50 measured after 48 hrs relative to control

Question: Which log2FC [1] does the source give for CC(=O)C(=NNc1ccccc1C#N)C(C)=O here?
Answer: The log2FC was -0.616.

Question: And the log2FC [2]?
Answer: The log2FC was 1.03.

Question: What about the log2FC [3] of the same molecule?
Answer: The log2FC was -0.529.

Question: What about the log2FC [4] of the same molecule?
Answer: Its log2FC is 1.96.

Question: What about the log2FC [5] of the same molecule?
Answer: The log2FC was 1.02.

Question: What about the log2FC [6] of the same molecule?
Answer: Its log2FC is 0.931.

Question: What about the log2FC [7] of the same molecule?
Answer: The log2FC was 0.604.

Question: And the log2FC [8]?
Answer: Its log2FC is 3.49.

Question: What about the log2FC [9] of the same molecule?
Answer: The log2FC was -0.909.

Question: What about the log2FC [10] of the same molecule?
Answer: The log2FC was -0.58.

Question: What about the log2FC [11] of the same molecule?
Answer: The log2FC was -0.759.

Question: And the log2FC [12]?
Answer: The log2FC was 0.731.

Question: What about the log2FC [13] of the same molecule?
Answer: The log2FC was 1.29.

Question: What about the log2FC [14] of the same molecule?
Answer: The log2FC was 1.52.

Question: And the log2FC [15]?
Answer: The log2FC was -0.796.

Question: What about the log2FC [16] of the same molecule?
Answer: The log2FC was -2.26.

Question: What about the log2FC [17] of the same molecule?
Answer: Its log2FC is 1.09.

Question: What about the log2FC [18] of the same molecule?
Answer: Its log2FC is 0.858.

Question: What about the log2FC [19] of the same molecule?
Answer: Its log2FC is 1.02.

Question: And the log2FC [20]?
Answer: The log2FC was 0.514.

Question: What about the log2FC [21] of the same molecule?
Answer: The log2FC was 0.782.

Question: And the log2FC [22]?
Answer: The log2FC was -0.985.

Question: What about the log2FC [23] of the same molecule?
Answer: Its log2FC is -0.565.

Question: What about the log2FC [24] of the same molecule?
Answer: Its log2FC is -0.963.

Question: What about the log2FC [25] of the same molecule?
Answer: The log2FC was -0.718.

Question: And the log2FC [26]?
Answer: The log2FC was 0.699.

Question: What about the log2FC [27] of the same molecule?
Answer: The log2FC was 0.704.

Question: What about the log2FC [28] of the same molecule?
Answer: Its log2FC is -0.647.

Question: And the log2FC [29]?
Answer: The log2FC was -0.663.

Question: What about the log2FC [30] of the same molecule?
Answer: The log2FC was -0.418.

Question: What about the log2FC [31] of the same molecule?
Answer: The log2FC was -1.53.

Question: What about the log2FC [32] of the same molecule?
Answer: The log2FC was -0.944.
